# Experimental data from the supplement of paper PMC11006884.
# Protein sequences, listed by entry. Tags and fused reporters are not part of them. Lines headed by an entry give the natural chain unless they say otherwise; changes in a name come on top.
# UniProt P78527, whole entry, looked up: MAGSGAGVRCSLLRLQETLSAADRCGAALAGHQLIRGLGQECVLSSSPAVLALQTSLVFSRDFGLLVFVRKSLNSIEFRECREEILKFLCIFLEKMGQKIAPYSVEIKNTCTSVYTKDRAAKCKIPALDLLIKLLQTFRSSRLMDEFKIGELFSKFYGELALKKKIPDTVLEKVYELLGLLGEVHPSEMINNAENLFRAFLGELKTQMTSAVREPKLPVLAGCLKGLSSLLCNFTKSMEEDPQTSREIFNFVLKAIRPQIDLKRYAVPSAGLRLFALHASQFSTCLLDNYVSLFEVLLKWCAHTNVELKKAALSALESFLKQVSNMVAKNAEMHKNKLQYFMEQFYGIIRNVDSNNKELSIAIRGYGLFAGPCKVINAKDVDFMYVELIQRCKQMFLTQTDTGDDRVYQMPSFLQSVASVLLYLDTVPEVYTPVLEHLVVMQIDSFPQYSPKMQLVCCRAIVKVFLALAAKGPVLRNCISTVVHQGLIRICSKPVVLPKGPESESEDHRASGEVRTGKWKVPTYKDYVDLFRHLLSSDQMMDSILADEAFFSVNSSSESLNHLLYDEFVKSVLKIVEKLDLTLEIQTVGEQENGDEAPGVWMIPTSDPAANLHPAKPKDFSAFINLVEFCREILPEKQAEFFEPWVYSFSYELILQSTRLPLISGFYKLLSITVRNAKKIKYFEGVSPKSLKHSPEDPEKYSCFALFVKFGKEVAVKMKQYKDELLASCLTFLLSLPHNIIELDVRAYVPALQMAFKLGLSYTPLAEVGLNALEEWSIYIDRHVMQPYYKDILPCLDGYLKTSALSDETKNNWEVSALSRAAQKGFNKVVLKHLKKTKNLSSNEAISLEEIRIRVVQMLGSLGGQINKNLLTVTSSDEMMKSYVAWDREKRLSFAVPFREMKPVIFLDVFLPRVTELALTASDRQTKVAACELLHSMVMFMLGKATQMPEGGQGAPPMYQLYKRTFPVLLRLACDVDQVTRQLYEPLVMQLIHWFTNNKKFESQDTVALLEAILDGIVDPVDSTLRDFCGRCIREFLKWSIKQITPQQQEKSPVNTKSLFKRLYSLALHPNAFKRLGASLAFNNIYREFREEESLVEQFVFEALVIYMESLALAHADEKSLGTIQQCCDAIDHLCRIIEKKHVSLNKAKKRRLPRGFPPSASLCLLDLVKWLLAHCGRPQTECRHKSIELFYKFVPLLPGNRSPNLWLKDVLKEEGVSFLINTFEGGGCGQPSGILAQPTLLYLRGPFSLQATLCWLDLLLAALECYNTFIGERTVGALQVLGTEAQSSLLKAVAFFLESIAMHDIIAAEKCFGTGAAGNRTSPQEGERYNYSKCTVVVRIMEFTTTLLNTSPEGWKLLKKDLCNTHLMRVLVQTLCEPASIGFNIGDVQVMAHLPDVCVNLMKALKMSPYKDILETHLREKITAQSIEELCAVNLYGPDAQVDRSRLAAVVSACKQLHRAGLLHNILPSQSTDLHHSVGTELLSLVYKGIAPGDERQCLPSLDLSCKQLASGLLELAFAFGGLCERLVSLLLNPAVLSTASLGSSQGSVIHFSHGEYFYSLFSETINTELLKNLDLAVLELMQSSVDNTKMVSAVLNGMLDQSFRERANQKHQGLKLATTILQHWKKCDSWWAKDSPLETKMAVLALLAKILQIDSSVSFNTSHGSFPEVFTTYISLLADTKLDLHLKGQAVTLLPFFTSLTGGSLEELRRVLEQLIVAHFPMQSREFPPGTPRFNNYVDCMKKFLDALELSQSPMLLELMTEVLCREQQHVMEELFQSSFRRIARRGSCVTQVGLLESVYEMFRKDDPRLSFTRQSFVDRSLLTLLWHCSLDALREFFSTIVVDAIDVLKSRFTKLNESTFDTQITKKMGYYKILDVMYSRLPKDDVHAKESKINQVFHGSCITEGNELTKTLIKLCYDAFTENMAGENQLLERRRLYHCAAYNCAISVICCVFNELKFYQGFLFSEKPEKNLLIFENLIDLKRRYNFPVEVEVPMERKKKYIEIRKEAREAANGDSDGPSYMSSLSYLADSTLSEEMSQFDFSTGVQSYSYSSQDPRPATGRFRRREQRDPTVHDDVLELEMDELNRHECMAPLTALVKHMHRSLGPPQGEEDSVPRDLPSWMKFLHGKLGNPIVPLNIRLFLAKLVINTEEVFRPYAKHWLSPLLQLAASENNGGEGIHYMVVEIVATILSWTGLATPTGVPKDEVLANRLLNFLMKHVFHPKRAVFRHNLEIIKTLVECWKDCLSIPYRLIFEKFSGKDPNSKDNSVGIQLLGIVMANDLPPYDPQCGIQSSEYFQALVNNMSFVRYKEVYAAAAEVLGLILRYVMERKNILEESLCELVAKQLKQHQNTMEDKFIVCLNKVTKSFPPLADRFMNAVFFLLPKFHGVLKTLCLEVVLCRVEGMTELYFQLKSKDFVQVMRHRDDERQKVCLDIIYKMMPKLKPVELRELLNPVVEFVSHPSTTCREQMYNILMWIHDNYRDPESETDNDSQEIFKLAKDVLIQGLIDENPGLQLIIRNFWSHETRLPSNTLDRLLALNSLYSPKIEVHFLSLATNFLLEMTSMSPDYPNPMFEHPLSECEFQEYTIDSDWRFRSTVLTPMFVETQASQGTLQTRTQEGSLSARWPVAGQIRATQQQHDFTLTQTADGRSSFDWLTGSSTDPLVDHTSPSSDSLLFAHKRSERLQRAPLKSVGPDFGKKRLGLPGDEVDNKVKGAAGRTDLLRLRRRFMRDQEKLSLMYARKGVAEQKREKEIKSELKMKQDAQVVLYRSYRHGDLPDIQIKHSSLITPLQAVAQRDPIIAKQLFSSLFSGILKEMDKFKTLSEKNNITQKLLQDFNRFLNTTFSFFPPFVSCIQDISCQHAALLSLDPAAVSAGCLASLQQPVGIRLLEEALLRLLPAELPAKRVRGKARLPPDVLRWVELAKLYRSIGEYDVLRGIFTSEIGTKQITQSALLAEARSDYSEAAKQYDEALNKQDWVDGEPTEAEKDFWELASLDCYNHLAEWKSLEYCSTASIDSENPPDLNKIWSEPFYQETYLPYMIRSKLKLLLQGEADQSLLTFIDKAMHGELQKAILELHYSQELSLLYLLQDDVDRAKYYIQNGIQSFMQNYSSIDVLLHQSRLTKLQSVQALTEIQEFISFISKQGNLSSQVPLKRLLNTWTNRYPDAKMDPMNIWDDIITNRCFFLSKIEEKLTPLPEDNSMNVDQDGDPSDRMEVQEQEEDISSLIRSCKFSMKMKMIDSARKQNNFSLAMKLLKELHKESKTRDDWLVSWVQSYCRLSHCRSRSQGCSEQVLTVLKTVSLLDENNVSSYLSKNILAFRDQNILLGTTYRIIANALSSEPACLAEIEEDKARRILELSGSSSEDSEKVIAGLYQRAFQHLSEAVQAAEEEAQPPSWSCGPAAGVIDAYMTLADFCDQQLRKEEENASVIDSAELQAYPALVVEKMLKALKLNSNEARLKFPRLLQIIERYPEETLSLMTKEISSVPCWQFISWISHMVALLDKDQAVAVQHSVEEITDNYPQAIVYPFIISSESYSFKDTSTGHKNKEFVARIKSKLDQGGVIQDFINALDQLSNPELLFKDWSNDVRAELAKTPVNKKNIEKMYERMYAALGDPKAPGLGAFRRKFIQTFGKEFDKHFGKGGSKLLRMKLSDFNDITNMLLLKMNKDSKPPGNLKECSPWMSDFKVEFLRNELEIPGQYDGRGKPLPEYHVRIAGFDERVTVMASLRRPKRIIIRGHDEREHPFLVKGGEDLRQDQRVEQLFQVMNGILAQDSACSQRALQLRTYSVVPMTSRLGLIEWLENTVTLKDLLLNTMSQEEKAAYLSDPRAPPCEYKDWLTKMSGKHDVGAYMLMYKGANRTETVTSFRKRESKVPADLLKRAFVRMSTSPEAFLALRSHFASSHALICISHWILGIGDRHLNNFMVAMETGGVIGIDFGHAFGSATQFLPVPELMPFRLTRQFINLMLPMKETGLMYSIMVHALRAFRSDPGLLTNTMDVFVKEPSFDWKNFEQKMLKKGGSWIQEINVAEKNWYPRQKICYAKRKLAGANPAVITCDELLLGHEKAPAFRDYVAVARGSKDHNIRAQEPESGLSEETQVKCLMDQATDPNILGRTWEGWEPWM
# UniProt Q00610: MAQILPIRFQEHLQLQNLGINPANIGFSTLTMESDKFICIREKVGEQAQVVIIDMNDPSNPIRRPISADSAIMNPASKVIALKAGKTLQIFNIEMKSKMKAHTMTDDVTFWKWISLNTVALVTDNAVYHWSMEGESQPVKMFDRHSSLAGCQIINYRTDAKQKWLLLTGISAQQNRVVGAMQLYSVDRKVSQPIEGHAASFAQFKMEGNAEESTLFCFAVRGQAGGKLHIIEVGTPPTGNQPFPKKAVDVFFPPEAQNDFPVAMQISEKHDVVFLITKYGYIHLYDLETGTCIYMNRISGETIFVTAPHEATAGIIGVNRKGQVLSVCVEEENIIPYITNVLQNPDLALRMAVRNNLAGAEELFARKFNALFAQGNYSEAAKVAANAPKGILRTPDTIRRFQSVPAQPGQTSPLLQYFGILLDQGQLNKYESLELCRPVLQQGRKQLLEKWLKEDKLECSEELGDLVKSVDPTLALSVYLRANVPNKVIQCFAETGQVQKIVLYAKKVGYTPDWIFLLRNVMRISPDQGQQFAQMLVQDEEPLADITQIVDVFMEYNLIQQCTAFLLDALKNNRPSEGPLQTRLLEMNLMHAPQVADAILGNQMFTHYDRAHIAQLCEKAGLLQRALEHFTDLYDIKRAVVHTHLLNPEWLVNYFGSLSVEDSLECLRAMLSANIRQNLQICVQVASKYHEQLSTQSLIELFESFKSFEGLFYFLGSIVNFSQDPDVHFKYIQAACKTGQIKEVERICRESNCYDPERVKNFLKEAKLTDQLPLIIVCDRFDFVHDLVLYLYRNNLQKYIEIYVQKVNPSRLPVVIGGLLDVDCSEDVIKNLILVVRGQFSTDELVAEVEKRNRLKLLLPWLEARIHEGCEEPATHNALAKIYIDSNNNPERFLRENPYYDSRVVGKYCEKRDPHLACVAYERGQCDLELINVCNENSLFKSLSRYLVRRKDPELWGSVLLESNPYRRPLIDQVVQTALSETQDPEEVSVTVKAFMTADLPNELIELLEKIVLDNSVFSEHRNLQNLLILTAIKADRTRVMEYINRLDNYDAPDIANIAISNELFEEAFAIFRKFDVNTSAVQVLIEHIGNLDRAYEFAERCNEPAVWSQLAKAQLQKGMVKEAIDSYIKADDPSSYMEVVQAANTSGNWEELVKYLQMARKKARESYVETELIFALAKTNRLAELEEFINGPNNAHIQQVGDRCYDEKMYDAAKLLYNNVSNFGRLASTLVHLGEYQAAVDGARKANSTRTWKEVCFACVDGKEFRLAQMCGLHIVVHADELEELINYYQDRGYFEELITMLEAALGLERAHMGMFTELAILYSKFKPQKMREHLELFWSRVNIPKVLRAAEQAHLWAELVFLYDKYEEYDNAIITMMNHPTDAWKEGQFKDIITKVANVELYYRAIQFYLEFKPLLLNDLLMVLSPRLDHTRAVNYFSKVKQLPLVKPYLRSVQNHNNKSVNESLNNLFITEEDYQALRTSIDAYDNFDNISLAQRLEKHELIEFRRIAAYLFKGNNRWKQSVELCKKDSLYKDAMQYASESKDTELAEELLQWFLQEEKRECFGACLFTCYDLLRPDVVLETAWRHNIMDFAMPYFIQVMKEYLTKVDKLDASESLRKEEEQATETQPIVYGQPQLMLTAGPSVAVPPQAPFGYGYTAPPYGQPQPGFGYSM
# UniProt Q01813: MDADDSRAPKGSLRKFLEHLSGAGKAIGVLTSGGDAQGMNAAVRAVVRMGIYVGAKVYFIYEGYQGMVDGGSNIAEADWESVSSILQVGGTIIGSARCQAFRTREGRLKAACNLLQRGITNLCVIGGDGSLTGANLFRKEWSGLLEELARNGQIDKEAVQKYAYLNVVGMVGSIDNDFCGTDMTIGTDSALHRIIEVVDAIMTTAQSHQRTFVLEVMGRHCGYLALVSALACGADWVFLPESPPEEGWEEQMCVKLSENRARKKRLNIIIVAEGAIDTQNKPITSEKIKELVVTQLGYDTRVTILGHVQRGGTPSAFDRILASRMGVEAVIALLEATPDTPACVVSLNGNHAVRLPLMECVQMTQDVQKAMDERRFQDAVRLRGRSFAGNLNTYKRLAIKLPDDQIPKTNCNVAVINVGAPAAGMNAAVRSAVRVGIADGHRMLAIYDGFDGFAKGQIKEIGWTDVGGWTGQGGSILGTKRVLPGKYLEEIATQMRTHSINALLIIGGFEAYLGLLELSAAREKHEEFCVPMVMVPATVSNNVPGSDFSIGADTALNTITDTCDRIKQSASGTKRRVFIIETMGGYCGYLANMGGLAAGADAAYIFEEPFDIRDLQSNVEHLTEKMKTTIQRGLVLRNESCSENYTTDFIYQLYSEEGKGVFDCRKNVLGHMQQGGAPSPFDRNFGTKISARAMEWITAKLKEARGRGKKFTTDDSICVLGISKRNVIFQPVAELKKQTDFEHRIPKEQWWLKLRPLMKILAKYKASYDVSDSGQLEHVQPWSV
# The entries are a selection whose mix differs from that of the whole data set. The data scatter; read single values as rough.
# Compound: COC(=O)/C=C/c1ccccc1 [methyl cinnamate]
# Assay: log2 ratio of iodoacetamide-alkyne labeling of the cysteine site, DMSO over compound (competition); higher = stronger covalent engagement of the cysteine by the compound, active = 1 or more
# Settings: 500 µM; treatment time 1 h; system: HEK293T cell lysate
# Procedure, shortened: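 HEK293T lysate (2 mg/mL) was treated with DMSO or electrophile (500 µM, 1 h, ambient temperature), then iodoacetamide alkyne (1 h), clicked to sCIP-TMT reagents, pooled, trypsin-digested overnight at 37 °C, streptavidin-enriched and acid-eluted. Peptides were run on Orbitrap Eclipse LC-MS/MS with FAIMS and quantified in FragPipe. The log2 competition ratio per cysteine is mean control-channel over mean compound-channel reporter intensity. Duplicate channels and three replicates were used, and cysteines quantified in only one replicate were excluded.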
row,Target,log2 ratio of iodoacetamide-alkyne labeling
1,UniProt P62910_C96,inactive: 0.211
2,UniProt P62888_C92,inactive: -0.0536
3,CSNK2B C114 (UniProt P67870),inactive: -0.156
4,RPL7A C174 (UniProt P62424),inactive: -0.349
5,MRPS5 C211 (UniProt P82675),inactive: 0.051
6,UniProt P62330_C155,inactive: -0.0716
7,FOXK2 C210 (UniProt Q01167),inactive: -0.386
8,UniProt P78527_C3683,inactive: 0.139
9,UniProt P62834_C141,inactive: 0.0632
10,UniProt P78527_C1507,inactive: 0.308
11,EEF1A1 C31 (UniProt P68104),inactive: 0.259
12,EXOSC10 C651 (UniProt Q01780),inactive: 0.124
13,CLTC C436 (UniProt Q00610),inactive: 0.028
14,UniProt P78527_C1455,inactive: 0.104
15,UniProt P63279_C138,inactive: -0.00953
16,UniProt P68431_C97,inactive: -0.000769
17,UniProt P68431_C111,inactive: 0.0523
18,PFKP C179 (UniProt Q01813),inactive: -0.105
19,CNBP C54 (UniProt P62633),inactive: 0.0102

# Looked up one by one from the list above, 2 records:
row,Target,log2 ratio of iodoacetamide-alkyne labeling
14,UniProt P78527_C1455,inactive: 0.104
9,UniProt P62834_C141,inactive: 0.0632

# Further entries

row,Target,log2 ratio of iodoacetamide-alkyne labeling
1,UniProt P78527_C1432,inactive: 0.0858
2,UniProt Q00341_C683,inactive: 0.241
3,GTF2I C903 (UniProt P78347),inactive: -0.00452
4,SORD C350 (UniProt Q00796),inactive: -0.0414
5,UniProt P78527_C2093,inactive: 0.0397
6,UniProt P84095_C157,inactive: 0.119
7,UniProt P62701_C41,inactive: -0.0895
8,XIAP C202 (UniProt P98170),inactive: 0.121
9,UniProt P62316_C63,inactive: 0.218
10,UniProt P78527_C1919,inactive: 0.174
11,RPL7A C199 (UniProt P62424),inactive: 0.165
12,UniProt P62266_C90,inactive: 0.0391
13,RPL10A C74 (UniProt P62906),inactive: 0.0472
14,UniProt P84085_C62,inactive: 0.211
15,CNBP C158 (UniProt P62633),inactive: 0.0627
16,HNRNPU C607 (UniProt Q00839),inactive: 0.215
17,RPS27A C144 (UniProt P62979),inactive: 0.128
18,UniProt P62701_C124,inactive: 0.187
